The assay in a line: qHTS Assay to Find Inhibitors of Chronic Active B-Cell Receptor Signaling. The conditions noted are these: ABC-DLBCL IkBa-CBG/CBR reporter, luminescence ratio (green luciferase fused to IkBa over red control in TMD8 lymphoma cells), 4 h. An outline of the steps:
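Cell line TMD8 (human ABC DLBCL), stably expressing tet-inducible CBG68-IkBa fusion and CBR; IMDM/0.5% FBS; cpd up to 46 uM; dox induction, 4 h, 37C/5% CO2; dual luminescence; green/red ratio; MG132 control.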
(qHTS replaces the single test concentration by a dilution series.)

Setting [1] is: measured here: CBR red luminescence, cell number.

By AC50 is commonly meant the midpoint of the concentration-response curve, whichever way the signal moves.

Structures are written as SMILES. Some of the results follow. The main result of the screen is listed elsewhere. These columns were measured beside it and carry no call. The list favours compounds with an active or inconclusive main result. Words in brackets tell the shape of the fitted curve; partial curves, single points and poor fits give uncertain potencies.

For the compound `CCN(CC)c1ccc2oc(=O)c(C)nc2c1`, the AC50 under setting [1] was 16.4 µM [falling, single point].

Consider `O=C1NC(=Nc2cccnc2)S/C1=C\c1cccc(F)c1`, for which the AC50 under setting [1] was 35.5 µM [falling, single point].

As for `COc1ccc(-c2nc3ccccc3nc2-c2ccc(OC)c(OC)c2)cc1OC`, the AC50 under setting [1] was 1.12 µM [rising, full curve, poor fit].

Regarding `COCCNC(=O)c1ccccc1NS(=O)(=O)c1ccc(Br)s1`, the AC50 under setting [1] is 0.58 µM [falling, full curve, poor fit].

Regarding `CCCn1nc(C(=O)N2CCN(c3ccccn3)CC2)c2ccccc2c1=O`, under setting [1], the concentration at half-maximal activity (AC50) was 6.51 µM [rising, single point].

In the case of `Nc1nc2ccc(Oc3ccccc3)cc2s1`, the AC50 under setting [1] is 0.461 µM [rising, full curve, poor fit].

Turning to `Cc1ccnc(NC(=O)C2CCC(CNc3c(N4CCCC4)c(=O)c3=O)CC2)c1` (stereo not drawn), the AC50 under setting [1] was 29.1 µM [falling, single point].

Regarding `COc1ccc(/C=C2\SC(=S)N(CC(=O)N(C)C3CCS(=O)(=O)C3)C2=O)cc1` (stereo not drawn), the AC50 under setting [1] was 15.8 µM [falling, single point].

With `Cc1ccc(NC(=O)CNC(=O)c2cccs2)cc1S(=O)(=O)Nc1ccc(Cl)cc1`, the AC50 under setting [1] is 2.06 µM [rising, single point].

For `COc1ccccc1C(=O)CSc1cccc[n+]1[O-]`, the AC50 under setting [1] was 35.5 µM [falling, single point].

In the case of `CC(C)(C)OC(=O)C1C(=O)CC(C)(O)C(C(=O)OC(C)(C)C)C1c1cccnc1` (stereo not drawn), the concentration at half-maximal activity (AC50) under setting [1] was 29.1 µM [falling, partial curve, poor fit].

`CCOC(=O)c1oc2cccc(OCC(O)CNC(C)C)c2c1C` (stereo not drawn): the AC50 under setting [1] is 18.4 µM [falling, partial curve].

On to `Cc1ccc(Cn2ccc(NC(=O)c3cc(-c4ccccc4)on3)n2)cc1`, for which the concentration at half-maximal activity (AC50) under setting [1] was 2.31 µM [falling, full curve].

For `COc1ccc(-c2coc3c(CN4CCOCC4)c(O)ccc3c2=O)cc1`, the AC50 under setting [1] is 35.5 µM [rising, single point].

On to `N#Cc1c(SCc2ccc(Cl)cc2)sc(C(=O)c2ccccc2)c1N`, for which, under setting [1], the AC50 was 10 µM [rising, partial curve, poor fit].

For `CCN1C(N(C)CCc2c[nH]c3ccccc23)=N[C@@H](c2cccc(C(F)(F)F)c2)C(C(=O)OC)=C1C`, the half-maximal activity concentration (AC50) under setting [1] was 29.1 µM [falling, single point].

`Cn1nc(C(=O)Nc2nc3ccccc3[nH]2)c2ccccc2c1=O`: the concentration at half-maximal activity (AC50) under setting [1] is 2.91 µM [falling, full curve].

Take `O=C(Nc1cccc(S(=O)(=O)N2CCOCC2)c1)c1ccc(Cl)nc1`: the half-maximal activity concentration (AC50) under setting [1] is 25.9 µM [falling, single point].

Consider `COc1cccc(C(=O)COc2cccc(NC(=O)c3ccco3)c2)c1`, for which, under setting [1], the concentration at half-maximal activity (AC50) was 8.91 µM [falling, partial curve, poor fit].

Turning to `O=C(N/N=C/c1ccc(-c2cccc([N+](=O)[O-])c2)o1)c1ccc([N+](=O)[O-])cc1`, under setting [1], the AC50 is 12.6 µM [rising, partial curve, poor fit].

`CC(C)/C=N/NC(=O)c1cccc(N2CCCC2=O)c1`: under setting [1], the concentration at half-maximal activity (AC50) was 29.1 µM [falling, single point].

As for `CC(C)CNC(=S)N(CCN(C)C)Cc1cc2cc3c(cc2[nH]c1=O)OCCO3`, the AC50 under setting [1] is 17.8 µM [falling, single point].

Take `O=C1[C@@H]2Cc3c([nH]c4ccccc34)CN2C(=O)CN1CCO`: the AC50 under setting [1] is 15.8 µM [rising, single point].

Regarding `Cc1nnc(NCc2cccc(Cl)c2)c2ccccc12`, the AC50 under setting [1] was 22.4 µM [falling, single point].

Regarding `CN(C)CCCN(C(=O)COc1ccccc1)c1nc2cc3c(cc2s1)OCCO3`, the AC50 under setting [1] is 1 µM [falling, full curve, poor fit].

In the case of `O=c1[nH]n(CC2COC3(CCCCC3)O2)c(=O)c2ccccc12` (stereo not drawn), the half-maximal activity concentration (AC50) under setting [1] is 0.794 µM [rising, full curve, poor fit].

`COc1ccc(-c2nc3c4ccccc4ccn3c2C=O)cc1`: under setting [1], the AC50 was 0.282 µM [rising, full curve, poor fit].

Consider `O=c1c2ccccc2nc(-c2ccco2)n1/N=C/c1ccco1`, for which, under setting [1], the AC50 is 7.08 µM [falling, partial curve].

Consider `Cc1cccc(NS(=O)(=O)c2cc3c4c(c2)CCC(=O)N4CCC3)c1`, for which the AC50 under setting [1] was 32.6 µM [falling, single point].

On to `Cc1ccc(-c2nn(-c3ccccc3)cc2/C=C/C(=O)Nc2cccc(S(N)(=O)=O)c2)cc1`, for which the AC50 under setting [1] was 12.6 µM [falling, single point].

Turning to `Cc1ccc(N(C)C(=O)N2CCN(c3ccccn3)CC2)cc1`, the AC50 under setting [1] is 2.06 µM [rising, partial curve, poor fit].

Turning to `CC1CCN(CCc2nc3cc(NC(=O)COc4ccc([N+](=O)[O-])cc4)ccc3n2C)CC1`, the concentration at half-maximal activity (AC50) under setting [1] was 0.447 µM [falling, full curve, poor fit].

Take `COc1cc(/C=N/NC(=O)c2cncc(Br)c2)cc([N+](=O)[O-])c1O`: under setting [1], the AC50 is 12.6 µM [falling, single point].

As for `C=CCNC(=O)CSc1nnc(-c2ccccn2)n1Cc1ccccc1`, the concentration at half-maximal activity (AC50) under setting [1] was 0.501 µM [rising, full curve, poor fit].

Consider `COc1ccc2oc(=O)c(C(=O)NCc3ccc4c(c3)OCO4)cc2c1`, for which the AC50 under setting [1] was 5.8 µM [rising, full curve, poor fit].

As for `Cc1cccc(OCC(=O)N2CCC(c3ccccc3)C2)c1` (stereo not drawn), the AC50 under setting [1] is 1.64 µM [rising, full curve, poor fit].

Regarding `COc1ccc2nc(N3C(=O)CC(Cc4ccc(C)cc4)C3=O)sc2c1` (stereo not drawn), the concentration at half-maximal activity (AC50) under setting [1] was 0.0013 µM [rising, full curve, poor fit].

For the compound `C/C(=C1/SC(=S)N(CCC(=O)O)C1=O)c1ccc(O)cc1`, the AC50 under setting [1] was 0.0291 µM [falling, full curve, poor fit].

Regarding `C/C(=N\NC(=O)CSCc1ccccc1Cl)c1cccc(NC(=O)c2ccccc2)c1`, under setting [1], the AC50 is 29.1 µM [rising, single point].

On to `COc1ccc(-c2nnn(-c3ccc(Cl)cc3Cl)c2N)cc1`, for which the AC50 under setting [1] was 3.16 µM [rising, partial curve, poor fit].

With `COc1ccc2oc(C(=O)OCC(=O)N(C)CC(=O)Nc3ccc(C)cc3)c(C)c2c1`, the concentration at half-maximal activity (AC50) under setting [1] was 16.4 µM [rising, partial curve].

On to `Fc1ccc2nc(Nc3nc4c(F)cc(F)cc4s3)sc2c1`, for which, under setting [1], the AC50 is 5.17 µM [falling, single point].

Regarding `C/C(=N\NC(=O)CC#N)c1cc2ccc(O)cc2oc1=O`, under setting [1], the AC50 is 15.8 µM [falling, single point].

As for `O=C(Nc1ccn(-c2ccccc2)n1)c1ccccc1Br`, under setting [1], the half-maximal activity concentration (AC50) is 5.17 µM [falling, partial curve].

In the case of `Cc1c(CC(=O)N[C@@H](C)C(=O)O)c(=O)oc2cc3occ(-c4ccccc4)c3cc12`, the concentration at half-maximal activity (AC50) under setting [1] is 3.98 µM [rising, full curve, poor fit].

In the case of `Cc1cccc(NC(=O)Nc2ccc3c(c2)OCO3)n1`, under setting [1], the AC50 was 22.4 µM [falling, single point].

For `CCN(CC)CCN1C(=O)C(=O)/C(=C(/O)c2ccc(OC)cc2)C1c1ccco1` (stereo not drawn), the AC50 under setting [1] was 12.6 µM [rising, partial curve].

On to `COc1ccc(-c2[nH]ncc2/C=N/NC(=O)c2cc(Br)ccc2O)c(OC)c1`, for which, under setting [1], the concentration at half-maximal activity (AC50) is 2.06 µM [falling, full curve].

Take `Cc1cc(OCC(=O)O/N=C(\N)c2ccccc2)cc(C)c1Cl`: the half-maximal activity concentration (AC50) under setting [1] was 2.51 µM [rising, partial curve].

Turning to `COc1cc(C#Cc2c(-c3ccccc3OC)oc3ccccc23)cc(OC)c1`, the AC50 under setting [1] is 18.4 µM [rising, single point].

Consider `C[C@@H]1CN([C@H](C)CO)C(=O)c2cccc(NC(=O)NC3CCCCC3)c2O[C@@H]1CN(C)C(=O)Nc1ccc(C(F)(F)F)cc1`, for which the concentration at half-maximal activity (AC50) under setting [1] is 23.1 µM [falling, partial curve, poor fit].

For the compound `COc1cc(/C=C/C(=O)c2ccc(NS(=O)(=O)c3ccc(C)cc3)cc2)ccc1OC(F)F`, under setting [1], the AC50 was 29.1 µM [falling, single point].

Take `O=C(CCCN1C(=O)/C(=C\c2cccs2)SC1=S)Nc1ccc(C(=O)O)cc1`: the AC50 under setting [1] was 17.8 µM [falling, partial curve, poor fit].

In the case of `O=C(CSc1nc2c([nH]c3ccccc32)c(=O)n1-c1ccccc1F)NCC1CCCO1` (stereo not drawn), the AC50 under setting [1] is 35.5 µM [falling, single point].

Consider `NC(=O)C1CCN(C(=S)c2ccc(-c3ccc(Br)cc3)o2)CC1`, for which the AC50 under setting [1] was 2.51 µM [rising, full curve].

On to `Cc1nnc(-c2ccccc2)c(=O)n1/N=C/c1c(O)ccc2ccccc12`, for which the concentration at half-maximal activity (AC50) under setting [1] is 3.55 µM [falling, partial curve, poor fit].

With `CCOC(=O)Cn1c(CN(Cc2ccccc2)Cc2ccccc2)nc2c1c(=O)[nH]c(=O)n2C`, the AC50 under setting [1] was 35.5 µM [falling, single point].

Regarding `N#Cc1nc(-c2ccccc2Cl)oc1N1CCCCC1`, the AC50 under setting [1] is 25.1 µM [rising, single point].

In the case of `COc1cccc(C2=CC(c3ccc(N(C)C)cc3)n3ncnc3N2)c1` (stereo not drawn), the AC50 under setting [1] is 11.2 µM [falling, partial curve].

Regarding `Cc1nn(Cc2ccc(Cl)cc2)c(C)c1NC(=O)C(c1ccccc1)c1ccccc1`, the concentration at half-maximal activity (AC50) under setting [1] was 7.31 µM [falling, partial curve].

Consider `CCOC(=O)c1ccc(N2C(=O)c3n[nH]c(C)c3C2c2ccco2)cc1` (stereo not drawn), for which, under setting [1], the concentration at half-maximal activity (AC50) is 17.8 µM [falling, single point].

For the compound `CC[C@]12c3[nH]c4ccc(Cl)cc4c3CCN1C(=O)[C@@H](CC(=O)NCC13CC4CC(CC(C4)C1)C3)C[C@@H]2C(=O)N1CCN(C(=O)c2ccco2)CC1`, the AC50 reads like this: under setting [1], 2.91 µM [falling, full curve]; (measured here: IkBa-CBG green luminescence) 4.61 µM [rising, full curve, poor fit].

These data come from PubChem BioAssay AID493014 (National Center for Advancing Translational Sciences (NCATS), 2011).
